{"sequences": {"note": "Amino acid sequences for entries named in this document (tags omitted). A change or cut given only in a name is not applied to a line headed by its entry. Residues count along the entry.", "UniProt Q02383": "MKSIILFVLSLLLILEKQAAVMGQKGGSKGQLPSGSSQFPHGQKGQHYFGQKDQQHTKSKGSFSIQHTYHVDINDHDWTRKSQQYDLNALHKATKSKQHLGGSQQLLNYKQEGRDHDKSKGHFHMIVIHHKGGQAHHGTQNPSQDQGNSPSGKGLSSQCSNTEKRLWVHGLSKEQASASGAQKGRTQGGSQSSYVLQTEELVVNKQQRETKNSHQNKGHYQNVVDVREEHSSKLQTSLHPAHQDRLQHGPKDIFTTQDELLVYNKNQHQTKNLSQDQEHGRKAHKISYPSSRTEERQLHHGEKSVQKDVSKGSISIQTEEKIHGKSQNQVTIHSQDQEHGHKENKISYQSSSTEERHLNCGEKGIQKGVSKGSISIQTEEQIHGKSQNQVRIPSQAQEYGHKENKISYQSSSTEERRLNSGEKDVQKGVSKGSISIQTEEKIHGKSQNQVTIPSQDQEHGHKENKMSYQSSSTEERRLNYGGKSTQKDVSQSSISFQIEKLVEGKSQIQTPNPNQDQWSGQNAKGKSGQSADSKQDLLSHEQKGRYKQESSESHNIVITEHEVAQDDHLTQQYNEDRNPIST", "UniProt P04279, residues 23-461": "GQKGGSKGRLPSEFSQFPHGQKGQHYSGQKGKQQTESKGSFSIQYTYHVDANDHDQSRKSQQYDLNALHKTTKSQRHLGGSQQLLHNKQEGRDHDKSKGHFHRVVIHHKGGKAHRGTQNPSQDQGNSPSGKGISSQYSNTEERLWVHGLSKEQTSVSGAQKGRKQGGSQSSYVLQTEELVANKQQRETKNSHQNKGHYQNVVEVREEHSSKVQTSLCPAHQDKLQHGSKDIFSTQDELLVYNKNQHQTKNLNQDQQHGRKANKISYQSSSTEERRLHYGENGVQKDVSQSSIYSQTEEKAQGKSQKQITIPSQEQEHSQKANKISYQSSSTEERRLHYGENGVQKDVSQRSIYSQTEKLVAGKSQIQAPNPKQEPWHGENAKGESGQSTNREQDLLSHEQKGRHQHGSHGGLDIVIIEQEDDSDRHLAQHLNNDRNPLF"}, "source": "paper PMC7733513", "key": {"[1]": {"biological_target": "GST-SEMG2 (truncated SEMG2 lacking the signal peptide, 23-562 a.a.) (human) (UniProt Q02383)", "assay": "affinity purification with mass spectrometry; 50 µg GST-SEMG1 or GST-SEMG2 (GST as control) incubated 3 h with MCF7 cell extract pre-incubated with GST; eluted in Laemmli buffer, SDS-PAGE, LC-MS/MS; only the target purified"}, "[2]": {"biological_target": "GST-SEMG1 (truncated SEMG1 lacking the signal peptide, 23-461 a.a.) (human) (UniProt P04279)", "assay": "affinity purification with mass spectrometry; 50 µg GST-SEMG1 or GST-SEMG2 (GST as control) incubated 3 h with MCF7 cell extract pre-incubated with GST; eluted in Laemmli buffer, SDS-PAGE, LC-MS/MS; only the target purified"}}, "note": "No constants are given. Whether binding was seen depends on the method and setting. Binding seen in cells or lysates may run through a third protein. These calls come from enrichment with a bait or labelling near it, and not all partners need be listed."}
{"substance": "pyruvate kinase M2 (PKM2), endogenous in MCF7 cell extract (from UniProt P14618-1 1-531) (enzyme)", "values": [{"measurement": "binding", "setting": "[1]", "result": "binds"}, {"measurement": "binding", "setting": "[2]", "result": "binds"}]}
